No constants are given. Whether binding was seen depends on the method and setting.
Molecular target: recombinant Fc chimeric conjugate of human IL12 Rβ1 (human) (UniProt P42701)
Assay: ELISA, coated antigen

| binding | Binder |
| --- | --- |
| no binding (tested: OD 0.1 or lower) | Antibody 72 (antibody, V domains shown, rabbit IgG in B-cell supernatant) VH: QSLEESGGRLVTPGTLLTLTCTASGIDLSGHAMAWVRQAPGKGLEWIGIIYDNGITNYPTWAKGRFTISKTSTTVELKFTSPTTEDTATYFCARDTGNGALRLTLWGPGTLVTVSS VL: DIVMTQTPSPVSAAVGGTVTIKCQASQSIGSWLSWYQQKPGQRPKLLIYGASTLESGVPSRFKGSGSGTEFTLTISDLECADAATYYCHCTYGSVSGNAFGGGTEVVVK |
| no binding (tested: OD 0.1 or lower) | Antibody 74 (antibody, V domains shown, rabbit IgG in B-cell supernatant) VH: QSVEESGGRLVTPGTPLTLTCTVSGFSLSSGYMNWVRQAPGKGLEWIGRIHTLSGSIWYASWVKGRFTISKTSTTVDLKMTSLTTKDTATYFCARGNAGGSIEYGMDLWGPGTLVTVSA VL: AYDMTQTPASVEAAVGGTVTIKCQASESITNYLNWYQQKPGQPPKLLIYSASTLASGVPSRFKGSGSGTQFTLTISGVECADAGTYYCQQGYSLINVGDIFGGGTEVVVR |
| no binding (tested: OD 0.1 or lower) | Antibody 78 (antibody, V domains shown, rabbit IgG in B-cell supernatant) VH: QSVEESGGRLVTPGTPLTLTCTVSGIDLSSYWMIWVRQAPGEGLEYIGFISNGGGAYYANWTKGRFTISRTSTTVDLKMTSLTTEDTATYFCARAYTTVTIGGFDLWGPGTLVTVSS VL: AYDMTQTPASVEVAVGGTVTINCQASQNIYNGLAWYQQKPGQPPKLLIYLASTLASGVPSRFKGSGSGTEFTLTISDLECADAATYYCQQGFSVNNVGNVFGGGTEMVVK |
| no binding (tested: OD 0.1 or lower) | Antibody 88 (antibody, V domains shown, rabbit IgG in B-cell supernatant) VH: QSVEESGGRLVTPGTPLTLTCTVSGFPLSSYVMSWVRQAPGTGLEYIGIVGIGGSAYYASWAKGRFTISRTSTTVDLKMTSLTPEDTATYFCARGAGGNFYSPLDLWGQGTLVTVSS VL: DIVMTQTASPLSGAVGGTVTIKCQASQSISNELAWYQQKPGQRPKLLIYLASTLASGVPSRFKGSGSGTDFTLTISDLECADAATYYCQSYSDTSSISYGYGFGGGTEVVVK |
| no binding (tested: OD 0.1 or lower) | Antibody 11 (antibody, V domains shown, rabbit IgG in B-cell supernatant) VH: QSVEESGGRLVTPGTPLTLTCTVSGFSLRSYAMSWVRQAPGKGLEWVGIISTSGDTYYASWAKGRFTISKTSTTVDLKITSPTTEDTATYFCARYSYDDYGDYVRVGMDLWGPGTLVTVSS VL: AAVLTQTPSPVSAAVGGTVSISCQSSKSVYYNNWLSWFQQKPGQRPKLLIYGASTLASGVPSRFKGSGSETQFTLTISDVQCDDAATYYCAGGYTSSSDTVSFGGGTEVVVK |
| no binding (tested: OD 0.1 or lower) | Antibody 22 (antibody, V domains shown, rabbit IgG in B-cell supernatant) VH: QSVEESGGRLVTPGTPLTLTCTVSGFSLSNYGMSWVRQAPGKGLEWIGIITSRSTYYASWAKGRFTISKTSSTTVDLKMTSLTTEDTATYFCGVNNLWGQGTLVTVSS VL: DPVLTQTPSSVSAAVGGTVTISCQSSQTINNNDLSWFQQKPGQPPKRLIYEASTLTSGVPSRFKGSGSGTQFTLTISDVQCDDAATYYCLGGYYSYGWYFGFGGGTEVVVK |

More lines, now with the values behind:

| Binder | binding |
| --- | --- |
| Antibody 68 (antibody, V domains shown, rabbit IgG in B-cell supernatant) VH: QSVEESGGRLVTPGTPLTLTCTVSGFSLSTYSMSWVRQAPGKGLEWIGTIAISGTTYYASWAKGRFTISKSSTTVDLKISSPTTEDTATYFCARYVSDLIGTNLWGPGTLVTVSS VL: DVVMTQTPASVSEPVGGTVTIKCQASQSIGSNLAWHQQKPGQPPKLLIYAASNLASGVSSRFKGSRSGTEYTLTISAVQCDDAATYYCQYTYYGSSVVIGTFGGGTEVVVK | no binding (tested: OD 0.1 or lower) |
| Antibody 86 (antibody, V domains shown, rabbit IgG in B-cell supernatant) VH: QEQLKESGGGLVTPGGTLTLTCTVSGIDLSNYAMVWVRQAPGKGLEWIGIIYTTASTTYANWAKGRFTISKTSTTVDLKITSPTTEDTATYFCVRRSGWDGFDPWGPGTLVTVSS VL: AQVLTQTPASVSAAVGGTVTINCQASESISSYLNWYQQKPGQPPKRLIYRTSTLASGVPSRFKGSGSGTDFTLTISGVECADAATYYCQQDWSSSDVENVFGGGTEVVVK | no binding (tested: OD 0.1 or lower) |
| Antibody 65 (antibody, V domains shown, rabbit IgG in B-cell supernatant) VH: QSVEESGGRLVTPGTPLTLTCTVSGFSLNNYYMTWVRQAPGKGLEWIGVISGSATTYYASWAKGRFTISQTSTTVDLRITSPTTEDTATYFCARSLTADIIDYYNIWGPGTLVTVSL VL: DVVMTQTPASVSEPVGGTVTIKCQASEDINALLAWYQQKPGQPPKLLIYVASYLQSGVPSRFKGSGSGTEYTLTISGVQCADAATYYCQSAYDSSGYVGAFGGGTEVVVK | no binding (tested: OD 0.1 or lower) |
| Antibody 48 (antibody, V domains shown, rabbit IgG in B-cell supernatant) VH: QSLEESGGDLVKPGASLTLTCTASGFDLNSDYWICWVRQAPGKGLEWIACIDTGYGDIYYASWAKGRFTISKTSSTTVTLQMTSLTAADTATYFCAREIIFHFNLWGPGTLVTVSS VL: DVVMTQTPASVSEPVGGTVTIKCQASQSIRSYLAWYQQKPGQPPKVLIYKASTLASGVSSRFKGSGSGTQFTLTISDLECADAATYYCQGGVELNNYLYNPFGGGTEVVVK | no binding (tested: OD 0.1 or lower) |
| Antibody 37 (antibody, V domains shown, rabbit IgG in B-cell supernatant) VH: QSLEESGGDLVQPEGSLTLTCKASGLDFSSSYWICWVRQAPGKGLEWIACIDTGYGDIYYASWAKGRFTMSKTSSTTVTLQMTSLTAADTATYFCAREKIFHFNLWGPGTLVTVSS VL: DVVMTQTPASVSEPVGGTVTIKCQASQSIKNYLSWYQQKPGQPPKVLLYKASTLASGVSSRFKGSGSGTQFTLTISDLECADAATYYCQGGVEVNNYLYNPFGGGTEVVVK | no binding (tested: OD 0.1 or lower) |
| Antibody 49 (antibody, V domains shown, rabbit IgG in B-cell supernatant) VH: QSLEESGGDLVKPGASLTLTCTASGFDLNSNYWICWVRQAPGKGLEWIACIDTGYGDIYYASWAKGRFTISKTSSTTVTLQMTSLTAADTATYFCAREIIFHFNLWGPGTLVTVSS VL: DVVMTQTPASVSEPVGGTVTIKCQASQSISSYLAWYQQKPGQPPKVLIYKASTLASGVSSRFKGSGSGTQFTLTISDLECADAATYYCQGGVEVNNYLYNPFGGGTEVVVK | no binding (tested: OD 0.1 or lower) |
| Antibody 25 (antibody, V domains shown, rabbit IgG in B-cell supernatant) VH: QSLEESGGDLVKPGASLTLICTASGFDLNTNYWICWVRQAPGKGLEWIACIDSGYGDIYYATWAKGRFTISKASSTTVTLQMTSLTAADTATYFCAREIIFHFNLWGPGTLVTVSS VL: DVVMTQTPASVSEPVGGTVTIKCQASQSIRSYLAWYQQKPGQPPKVLIYKASTLASGVSSRFKGSGSGTQFTLTISDLECADAATYYCQGGVEFNNYLYNSFGGGTEVVVK | no binding (tested: OD 0.1 or lower) |
| Antibody 77 (antibody, V domains shown, rabbit IgG in B-cell supernatant) VH: QSVEESGGRLVTPGTPLTLTCTISGFSLNNYWMSWVRQAPGKGLEWIGIISSSDTTWYASWAKGRFTISRTSTTVDLKMTSLTTEDTATYFCARDRGDVGYSDLDLWGPGTLVTVSS VL: AYDMTQTPASVEVAVGGTVTIKCQASQSISSYLSWYQQKPGQPPKLLIYKASTLASGVSSRFSGSGSGTEFTLTISGVQCDDAATYYCQQGYSESNLDNAFGGGTEVVVK | no binding (tested: OD 0.1 or lower) |
